Binding signal data for 42 sequences are collected here from article PMC7819943, “Rice protein-binding microarrays: a tool to detect cis-acting elements near promoter regions in rice”.

The chains behind the UniProt entries cited, without tags or fusion partners.
UniProt Q0JBA9, entry or part of it: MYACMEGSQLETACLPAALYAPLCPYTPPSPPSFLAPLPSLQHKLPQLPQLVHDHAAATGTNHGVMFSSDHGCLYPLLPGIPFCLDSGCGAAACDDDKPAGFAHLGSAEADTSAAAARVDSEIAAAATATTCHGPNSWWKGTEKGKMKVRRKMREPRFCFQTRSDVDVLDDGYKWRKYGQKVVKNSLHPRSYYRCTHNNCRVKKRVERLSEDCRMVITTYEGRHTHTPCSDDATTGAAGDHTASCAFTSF

Some of the results follow.

This assay deals with OsWRKY34 (Oryza sativa, UniProt Q0JBA9 1-250). The assay is described as follows: protein-binding microarray (RPBM); PBS, 2% BSA, 51.3 ng/ul salmon testes DNA, 50 uM zinc acetate, 200 nM TF, 25 C, 1 h; high values mean tight binding. The following applies: protein: recombinant; tags: N-terminal polyhistidine and DsRed monomer fusion (pET32a); label: CyDye5-dUTP incorporated in the synthesized complementary strand; 3' TTTTT single-stranded linker to array surface; dsDNA, one strand shown. In outline:
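Polyhistidine-tagged DsRed fusions of transcription factors, joined at the N-terminus, were expressed in E. coli BL21-CodonPlus and isolated on Ni–NTA. They were incubated at 200 nM for 1 h at 25 °C on a custom Agilent array, double-stranded and BSA-blocked, in PBS with 2% BSA, salmon testes DNA and 50 µM zinc acetate. The binding signal is per-feature fluorescence intensity (arbitrary units) read on an Axon 4000B scanner after washing.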
Regarding “GTGTAATTGGTTTTTTTCGTCTATATTTAATGCTCTATATCGGAGTCACCTAGTGCAG”, the binding signal is 9420 fluorescence intensity (a.u.).

For “GTCATTTTGTCTTTTTCTCTAAGTCAAACTTCTTTAATTTCGGAGTCACCTAGTGCAG”, the binding signal is 10900 fluorescence intensity (a.u.).

Turning to “CACTTCCCCGACGACTCCATCATCATGCTCACCGGTAACTCGGAGTCACCTAGTGCAG”, the binding signal was 9470 fluorescence intensity (a.u.).

For the sequence “CCCAGTTCCATTCCGAGTTTATGTGTTCGTCACCATCACCCGGAGTCACCTAGTGCAG”, the binding signal is 8030 fluorescence intensity (a.u.).

In the case of “TCTTCTGCCGCGTCGGCTTCGCCTCCGCCTCGCCCTGCGACGGAGTCACCTAGTGCAG”, the binding signal was 8680 fluorescence intensity (a.u.).

“ATCCTTCCAGGCTTTCCAGCCCACCGCTCCACCGATCTCGCGGAGTCACCTAGTGCAG”: the binding signal was 8990 fluorescence intensity (a.u.).

Regarding “AACCCAAAACTGACGAACTCGATCGCTTCACTTTCCACCACGGAGTCACCTAGTGCAG”, the binding signal is 9290 fluorescence intensity (a.u.).

Regarding “TCCAAGTCAAATTGTCACGTATGCGCCATGTCAAAGCCACCGGAGTCACCTAGTGCAG”, the binding signal was 8580 fluorescence intensity (a.u.).

As to “AAGTACTCCCTCCGTATTTTAATGTATGACGCCGTTGACTCGGAGTCACCTAGTGCAG”, the binding signal was 9690 fluorescence intensity (a.u.).

Consider “GCCAGCCGGCATGTCGTCGTTGTCATCCACTTGCCAGCAACGGAGTCACCTAGTGCAG”, for which the binding signal is 8450 fluorescence intensity (a.u.).

For the sequence “CGGTGCCATTGGCTGGCCCATCATCGTACCAGCCAGTCCACGGAGTCACCTAGTGCAG”, the binding signal is 8540 fluorescence intensity (a.u.).

In the case of “TTTTGTCATTGTCAAATTTTGATAAGTTTGTCAAAATTTTCGGAGTCACCTAGTGCAG”, the binding signal is 9080 fluorescence intensity (a.u.).

“GCCTCCATAGCTAGCCCACTCGAGCCCTTCAACTTCTCGCCGGAGTCACCTAGTGCAG”: the binding signal is 11900 fluorescence intensity (a.u.).

As to “CCTTCTATACTACTCTCTCGTTACATAATATAAAGATTTTCGGAGTCACCTAGTGCAG”, the binding signal is 8370 fluorescence intensity (a.u.).

Regarding “GCCTTTTTTTTTTCTGAATTCTGAACACTTCTACTATTGACGGAGTCACCTAGTGCAG”, the binding signal was 8480 fluorescence intensity (a.u.).

On to “AGTTGCATCATCAACTCCATCTTTAATACTTCCCAACTCACGGAGTCACCTAGTGCAG”, for which the binding signal is 8980 fluorescence intensity (a.u.).

For “GCAACAGCCAGCCCACCACCGCTTCCTCGCTCTGATGTTACGGAGTCACCTAGTGCAG”, the binding signal is 10300 fluorescence intensity (a.u.).

Consider “GGACAACGATTTTCCTAGTTGTGGGAGGGTGGCCGGCTCGCGGAGTCACCTAGTGCAG”, for which the binding signal was 9540 fluorescence intensity (a.u.).

Regarding “TCGCCCGTCACCATCCGCATTCCCAGCAAGTTCCCAGGAGCGGAGTCACCTAGTGCAG”, the binding signal was 8580 fluorescence intensity (a.u.).

Take “TTTCTTCATCACTTGCTGCTCTGTTACATTGCTTCGTGCACGGAGTCACCTAGTGCAG”: the binding signal was 10800 fluorescence intensity (a.u.).

With “GGTTAGGTATAGATTCTCATTGTTGATTTTTTACTCTCCTCGGAGTCACCTAGTGCAG”, the binding signal is 8740 fluorescence intensity (a.u.).

In the case of “AGGAAAGAGAAGGAGCTAGCTGTGTGAAGTGTGTAGTGTGCGGAGTCACCTAGTGCAG”, the binding signal is 8270 fluorescence intensity (a.u.).

With “CGGCACCACTCTCTGTTCACCACGGCTCAGGCATTAAAGACGGAGTCACCTAGTGCAG”, the binding signal was 8290 fluorescence intensity (a.u.).

Regarding “CGGCGGTAGCACGGTCCTCAGCCACGCCCTTTGTTGCACGCGGAGTCACCTAGTGCAG”, the binding signal was 8090 fluorescence intensity (a.u.).

As for “ACCCATTCCACTCGCCCCTCAACAAAACACCTCTAAAAGTCGGAGTCACCTAGTGCAG”, the binding signal is 9600 fluorescence intensity (a.u.).

In the case of “TGTAAGACTTTCTAGCATTGCCCACATTCATTTAGATGTTCGGAGTCACCTAGTGCAG”, the binding signal was 8080 fluorescence intensity (a.u.).

On to “TAATATTAATAAATAAAAAACCAGCGGTCGAACCGTTGACCGGAGTCACCTAGTGCAG”, for which the binding signal is 13000 fluorescence intensity (a.u.).

In the case of “CCTTCGCTGCCACCATCTCCTTCGCCGCCGGGCACCATCGCGGAGTCACCTAGTGCAG”, the binding signal was 11000 fluorescence intensity (a.u.).

In the case of “TCCCCGTCCCAGTCGCCGCCGTCCCCATCCCCAGCCATGTCGGAGTCACCTAGTGCAG”, the binding signal was 8910 fluorescence intensity (a.u.).

For the sequence “TCAGAGATTCCAGCTTTGGTTAGTGGCTCGTGTGTCGTTTCGGAGTCACCTAGTGCAG”, the binding signal is 8380 fluorescence intensity (a.u.).

Take “ATATAGGGTATTGTGGTTGAGTGATACGAAATAGATTGGACGGAGTCACCTAGTGCAG”: the binding signal is 8570 fluorescence intensity (a.u.).

Take “GCCACTGTCGCCGTCCTGTGCCGATGTCGACATCCGCCTCCGGAGTCACCTAGTGCAG”: the binding signal was 8890 fluorescence intensity (a.u.).

With “TCACTGCAACATTTTTTTTGTTTGGAAAAATCATCATCATCGGAGTCACCTAGTGCAG”, the binding signal was 8680 fluorescence intensity (a.u.).

As for “CTTCTGGGACTCTCACACGCCCATGGCCTCGCATGAGTCACGGAGTCACCTAGTGCAG”, the binding signal is 8350 fluorescence intensity (a.u.).

As for “TGCTTATTGGTGGGTGTAAATTTGTAGGGTCTGAATTAATCGGAGTCACCTAGTGCAG”, the binding signal was 12000 fluorescence intensity (a.u.).

As to “TTTTATAATCCTTTACTTTACACCTGAATTCATATTAGAACGGAGTCACCTAGTGCAG”, the binding signal is 8540 fluorescence intensity (a.u.).

For “CCTGATTATCCCGTGTCTTCTCCGCTTCTGGGTTGGTTGCCGGAGTCACCTAGTGCAG”, the binding signal was 12600 fluorescence intensity (a.u.).

With “ACCATTTTAAAAAAGATGTTTCTCTTTTTCGTTTCGACAACGGAGTCACCTAGTGCAG”, the binding signal is 8610 fluorescence intensity (a.u.).

Regarding “ATTACTCCATCCGTTTCACAATGTAAGTCATTCTAGCATTCGGAGTCACCTAGTGCAG”, the binding signal is 9340 fluorescence intensity (a.u.).

Regarding “GAGGGGCGAAGATTTCTGGTTTTGCGGTTAAGGGAACTTACGGAGTCACCTAGTGCAG”, the binding signal was 8200 fluorescence intensity (a.u.).

With “CTGCTCTTATTATATTCGTTTCCGTATTTGCTACAATCAACGGAGTCACCTAGTGCAG”, the binding signal was 11100 fluorescence intensity (a.u.).

With “CGTGTCTTTCCATACCCTGCGCGACGCGACGCGACGCTGTCGGAGTCACCTAGTGCAG”, the binding signal was 11300 fluorescence intensity (a.u.).
